The test concerns the target recombinant Phl p 12.0101 (Phleum pratense (Timothy grass)) (UniProt P35079). As to the kind of experiment: SEC; size exclusion chromatography as the last purification step, in 50 mM Tris-HCl, 150 mM NaCl, pH 7.4; both purified. (In general: Size exclusion chromatography separates by hydrodynamic size, large species first.)

Results are given in words; binding and its absence hold for the method and conditions named.

B1: recombinant Phl p 12.0101 (protein, UniProt P35079 1-131)
chain: MSWQTYVDEHLMCEIEGHHLASAAILGHDGTVWAQSADFPQFKPEEITGIMKDFDEPGHLAPTGMFVAGAKYMVIQGEPGRVIRGKKGAGGITIKKTGQALVVGIYDEPMTPGQCNMVVERLGDYLVEQGM
Take B1: the binding result is listed as “no binding”.
